The record followed here is article PMC7819943, “Rice protein-binding microarrays: a tool to detect cis-acting elements near promoter regions in rice”.

The chains behind the UniProt entries cited, without tags or fusion partners.
UniProt Q0JBA9, entry or part of it: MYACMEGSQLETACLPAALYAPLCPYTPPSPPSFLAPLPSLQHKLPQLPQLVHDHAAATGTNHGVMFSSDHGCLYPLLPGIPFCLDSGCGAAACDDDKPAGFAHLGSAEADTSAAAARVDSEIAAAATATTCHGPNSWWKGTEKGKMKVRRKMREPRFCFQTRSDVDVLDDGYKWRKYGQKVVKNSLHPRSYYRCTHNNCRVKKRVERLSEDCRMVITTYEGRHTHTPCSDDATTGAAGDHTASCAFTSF

The list shows a part of the results.

The target in the assay is OsWRKY34 (Oryza sativa, UniProt Q0JBA9 1-250). The experiment in a line: protein-binding microarray (RPBM); PBS, 2% BSA, 51.3 ng/ul salmon testes DNA, 50 uM zinc acetate, 200 nM TF, 25 C, 1 h; high values mean tight binding. To be noted: protein: recombinant; tags: N-terminal polyhistidine and DsRed monomer fusion (pET32a); label: CyDye5-dUTP incorporated in the synthesized complementary strand; 3' TTTTT single-stranded linker to array surface; dsDNA, one strand shown. Put shortly:
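In PBS with 2% BSA, salmon testes DNA and 50 µM zinc acetate, 200 nM protein was incubated on a custom Agilent array at 25 °C for 1 h and then washed off. The array had been made double-stranded by primer extension with Cy5-dUTP and blocked with 2% BSA. The proteins were transcription factors fused N-terminally to polyhistidine and DsRed, expressed in E. coli BL21-CodonPlus and purified on Ni–NTA. The binding signal is per-feature fluorescence intensity (arbitrary units) from an Axon 4000B scanner.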
For the sequence “CTCGCCTCCGAATCCTGCGTCCTCTGGTCGGCGGCGCCGCCGGAGTCACCTAGTGCAG”, the binding signal was 9960 fluorescence intensity (a.u.).

On to “CTAGCTTCGCCATCCACATTCTTCTTGCTTCTTGCTCCTCCGGAGTCACCTAGTGCAG”, for which the binding signal is 12700 fluorescence intensity (a.u.).

As to “CGGTCCTCCTCGTCCGTGTTGTCGAGGCGGGGTAGAGGGGCGGAGTCACCTAGTGCAG”, the binding signal is 10900 fluorescence intensity (a.u.).

“TGTATCATGCTCAGTTATCATTAGCTAGTTCATCATGTCACGGAGTCACCTAGTGCAG”: the binding signal was 8460 fluorescence intensity (a.u.).

In the case of “TTCGCTTCTTCGTTTCTCGCATGCACACTTTTCGAACTAGCGGAGTCACCTAGTGCAG”, the binding signal is 11600 fluorescence intensity (a.u.).

Regarding “TCCTTATTTTCTAATTCCGATTTCGAATTTCCATTATTTCCGGAGTCACCTAGTGCAG”, the binding signal was 11700 fluorescence intensity (a.u.).

Regarding “CCCTACTATTCCCAGATTCCCACCGGCCTCCGAGGCTCCGCGGAGTCACCTAGTGCAG”, the binding signal is 8030 fluorescence intensity (a.u.).

“CTCTCGTCGTCTTCATCTCTCTCCCCTCTCCTCCCTCCTCCGGAGTCACCTAGTGCAG”: the binding signal is 8860 fluorescence intensity (a.u.).

On to “CCCGTCCCAACTTGGTCACTCGTCTTCTCGCCCGAAAATCCGGAGTCACCTAGTGCAG”, for which the binding signal is 12700 fluorescence intensity (a.u.).

For the sequence “GACAACTTTTTGTAACCATCCTTCTTTATTGCTCAGTTATCGGAGTCACCTAGTGCAG”, the binding signal was 9150 fluorescence intensity (a.u.).

On to “GGTGACTCAGTTTATACCAGATTAATGATCCATTACCTCTCGGAGTCACCTAGTGCAG”, for which the binding signal is 9250 fluorescence intensity (a.u.).

“CTTCCATTTATTTCCAGTTATTCACATATGTCGTGCTAAGCGGAGTCACCTAGTGCAG”: the binding signal was 8360 fluorescence intensity (a.u.).

“CCCACCTGTCATCCTCACCCCACCCCATGCACCGAGTCCACGGAGTCACCTAGTGCAG”: the binding signal is 9650 fluorescence intensity (a.u.).

Regarding “CTCCCGTGCGTTGTGTTGTGCGTGCCAGATTGGTAGTAGTCGGAGTCACCTAGTGCAG”, the binding signal is 9520 fluorescence intensity (a.u.).

Regarding “GGTGCAGATATGTTCAACTTCAGAGTTTTGTTTATGTTACCGGAGTCACCTAGTGCAG”, the binding signal was 9660 fluorescence intensity (a.u.).

As to “AATGTAAGTCATTCTAGCATTTCTCATTAACATCAATATGCGGAGTCACCTAGTGCAG”, the binding signal was 8430 fluorescence intensity (a.u.).

Regarding “GCTTATGTGTCAATTCATTTGTGTTAGGTGCTGAGATTTTCGGAGTCACCTAGTGCAG”, the binding signal is 9050 fluorescence intensity (a.u.).

With “ATCATGACATATTAAACTATTAACACAACTTATCTATTATCGGAGTCACCTAGTGCAG”, the binding signal is 8850 fluorescence intensity (a.u.).

Consider “AACCCATTTTTACTTATCATATTTGGTATACTAGCCAAGTCGGAGTCACCTAGTGCAG”, for which the binding signal is 9430 fluorescence intensity (a.u.).

Turning to “CCTTCCCATGCTGCTGTGATGTGTCATACGCCGCCGCCACCGGAGTCACCTAGTGCAG”, the binding signal is 9920 fluorescence intensity (a.u.).

For the sequence “ATTTCTTGAACCATACATTAATAAGATGCATATTATACCTCGGAGTCACCTAGTGCAG”, the binding signal is 8400 fluorescence intensity (a.u.).

For “ATTCATTTTGTAAGCCTAATTTCCTGCACAATTTATTACACGGAGTCACCTAGTGCAG”, the binding signal is 8280 fluorescence intensity (a.u.).

Turning to “TTAATGAGTTCCTTTTGTTACCATTTGTACAGTTTGACCACGGAGTCACCTAGTGCAG”, the binding signal is 10100 fluorescence intensity (a.u.).
